PubChem BioAssay AID1053209 | Peter MacCallum Cancer Centre, 2014

Purpose: 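Knock-downs that sensitise mouse osteosarcoma cells to doxorubicin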 (follow-up of hits)
Cell system: mouse primary osteosarcoma cells
Knock-down reagent: single siRNA against mouse genes, 25 nM (text also states 40 nM)
Duration: about 120 h (48 h before drug, then 72 h with drug)
Conditions: doxorubicin 100 nM (about IC30-40), added 48 h after transfection, for 72 h
Measurement: 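Viability measured by ATP luminescence with and without doxorubicin, each replicate scaled to non-targeting siRNA NT1, averaged over two replicates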
Scale: viability with doxorubicin, vs NT1: higher = more viable cells under doxorubicin; viability ratio, doxorubicin over no drug: higher = less sensitisation to doxorubicin; viability without drug, vs NT1: higher = more viable cells without drug
Hit rule: 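Counted as active (class LC dox) if viability falls to 0.7 of NT1 or below under doxorubicin but stays within 0.7 to 1.1 without drug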
The deposit covers about 1,580 reagents; this is an unselected part. 207 of all reagents (13%) were called active. 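Rows are single siRNAs; four siRNAs per gene were tested, a gene counting as confirmed only when at least two agree.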 Unmarked entries are inactive. Reagents against one gene are numbered here.

no.	Target gene	reagent	combined effect class	viability with doxorubicin, vs NT1	viability ratio, doxorubicin over no drug	viability without drug, vs NT1
1	Nuf2 (NUF2, NDC80 kinetochore complex component)	1	low viability with and without drug	0.66	0.99	0.67
2	Nuf2 (NUF2, NDC80 kinetochore complex component)	2	normal viability with and without drug	0.96	0.99	0.97
3	Nuf2 (NUF2, NDC80 kinetochore complex component)	3	low viability only with doxorubicin; normal without drug (active)	0.56	0.7	0.8
4	Nuf2 (NUF2, NDC80 kinetochore complex component)	4	normal viability with and without drug	0.87	0.99	0.88
5	Snrpb (small nuclear ribonucleoprotein B)	1	low viability with and without drug	0.18	0.46	0.39
6	Snrpb (small nuclear ribonucleoprotein B)	2	low viability only with doxorubicin; normal without drug (active)	0.56	0.73	0.77
7	Snrpb (small nuclear ribonucleoprotein B)	3	low viability with and without drug	0.18	0.5	0.36
8	Snrpb (small nuclear ribonucleoprotein B)	4	low viability with and without drug	0.05	0.17	0.29
9	Vsig1 (V-set and immunoglobulin domain containing 1)	1	normal viability with and without drug	1.02	1.24	0.82
10	Vsig1 (V-set and immunoglobulin domain containing 1)	2	low viability only with doxorubicin; normal without drug (active)	0.68	0.87	0.78
11	Vsig1 (V-set and immunoglobulin domain containing 1)	3	normal viability with and without drug	1	0.98	1.02
12	Vsig1 (V-set and immunoglobulin domain containing 1)	4	normal viability with and without drug	0.88	0.98	0.9
13	Ap5z1 (adaptor-related protein complex 5, zeta 1 subunit)	1	normal viability with and without drug	0.83	0.84	0.99
14	Ap5z1 (adaptor-related protein complex 5, zeta 1 subunit)	2	low viability only with doxorubicin; normal without drug (active)	0.53	0.63	0.84
15	Ap5z1 (adaptor-related protein complex 5, zeta 1 subunit)	3	normal viability with and without drug	0.98	1.04	0.94
16	Ap5z1 (adaptor-related protein complex 5, zeta 1 subunit)	4	normal viability with and without drug	1.04	0.98	1.06
17	Ttk (Ttk protein kinase)	1	low viability with and without drug	0.49	0.94	0.52
18	Ttk (Ttk protein kinase)	2	normal viability with and without drug	1	1	1
19	Ttk (Ttk protein kinase)	3	normal viability with and without drug	0.74	0.73	1.02
20	Ttk (Ttk protein kinase)	4	normal viability with and without drug	0.74	0.92	0.8

Next part, starting with the last 6 of the part before.
no.	Target gene	reagent	combined effect class	viability with doxorubicin, vs NT1	viability ratio, doxorubicin over no drug	viability without drug, vs NT1
15	Ap5z1 (adaptor-related protein complex 5, zeta 1 subunit)	3	normal viability with and without drug	0.98	1.04	0.94
16	Ap5z1 (adaptor-related protein complex 5, zeta 1 subunit)	4	normal viability with and without drug	1.04	0.98	1.06
17	Ttk (Ttk protein kinase)	1	low viability with and without drug	0.49	0.94	0.52
18	Ttk (Ttk protein kinase)	2	normal viability with and without drug	1	1	1
19	Ttk (Ttk protein kinase)	3	normal viability with and without drug	0.74	0.73	1.02
20	Ttk (Ttk protein kinase)	4	normal viability with and without drug	0.74	0.92	0.8
21	Mov10 (Mov10 RISC complex RNA helicase)	1	high viability only without drug	1.04	0.93	1.12
22	Mov10 (Mov10 RISC complex RNA helicase)	2	normal viability with and without drug	0.98	0.94	1.04
23	Mov10 (Mov10 RISC complex RNA helicase)	3	normal viability with and without drug	0.88	0.88	1
24	Mov10 (Mov10 RISC complex RNA helicase)	4	normal viability with and without drug	0.97	0.97	1
25	Snrpd1 (small nuclear ribonucleoprotein D1)	1	low viability only with doxorubicin; normal without drug (active)	0.5	0.66	0.76
26	Snrpd1 (small nuclear ribonucleoprotein D1)	2	low viability with and without drug	0.16	0.33	0.48
27	Snrpd1 (small nuclear ribonucleoprotein D1)	3	low viability with and without drug	0.04	0.13	0.31
28	Snrpd1 (small nuclear ribonucleoprotein D1)	4	low viability only with doxorubicin; normal without drug (active)	0.52	0.62	0.84
29	Sike1 (suppressor of IKBKE 1)	1	high viability only with doxorubicin	1.14	1.12	1.02
30	Sike1 (suppressor of IKBKE 1)	2	normal viability with and without drug	0.88	0.92	0.96
31	Sike1 (suppressor of IKBKE 1)	3	normal viability with and without drug	0.98	1.02	0.96
32	Sike1 (suppressor of IKBKE 1)	4	normal viability with and without drug	0.97	0.93	1.04
33	B9d1 (B9 protein domain 1)	1	normal viability with and without drug	1.06	1	1.06
34	B9d1 (B9 protein domain 1)	2	normal viability with and without drug	1	0.98	1.02
35	B9d1 (B9 protein domain 1)	3	low viability with and without drug	0.34	0.55	0.62
36	B9d1 (B9 protein domain 1)	4	normal viability with and without drug	1.06	1.07	0.99
37	Sf3b5 (splicing factor 3b, subunit 5)	1	normal viability with and without drug	0.98	0.99	0.99
38	Sf3b5 (splicing factor 3b, subunit 5)	2	normal viability with and without drug	1.04	1.11	0.94
39	Sf3b5 (splicing factor 3b, subunit 5)	3	low viability with and without drug	0.11	0.61	0.18
40	Sf3b5 (splicing factor 3b, subunit 5)	4	low viability only with doxorubicin; normal without drug (active)	0.42	0.53	0.79
41	Rpl36a (ribosomal protein L36A)	1	normal viability with and without drug	1	1.3	0.77
42	Rpl36a (ribosomal protein L36A)	2	low viability with and without drug	0.43	0.61	0.7
43	Rpl36a (ribosomal protein L36A)	3	normal viability with and without drug	0.88	0.96	0.92
44	Rpl36a (ribosomal protein L36A)	4	normal viability with and without drug	1.07	1.06	1.01
45	Rpl23a (ribosomal protein L23A)	1	low viability with and without drug	0.52	0.79	0.66
46	Rpl23a (ribosomal protein L23A)	2	low viability with and without drug	0.38	0.72	0.53
47	Rpl23a (ribosomal protein L23A)	3	low viability with and without drug	0.46	0.88	0.52
48	Rpl23a (ribosomal protein L23A)	4	low viability with and without drug	0.31	0.72	0.43
49	Socs5 (suppressor of cytokine signaling 5)	1	normal viability with and without drug	0.99	1.01	0.98
50	Socs5 (suppressor of cytokine signaling 5)	2	normal viability with and without drug	1.06	1.08	0.98
51	Socs5 (suppressor of cytokine signaling 5)	3	normal viability with and without drug	1.09	1.09	1
52	Socs5 (suppressor of cytokine signaling 5)	4	normal viability with and without drug	0.82	0.96	0.85
53	Afap1l1 (actin filament associated protein 1-like 1)	1	high viability with and without drug	1.12	0.98	1.14
54	Afap1l1 (actin filament associated protein 1-like 1)	2	normal viability with and without drug	1.08	1.01	1.07
55	Afap1l1 (actin filament associated protein 1-like 1)	3	normal viability with and without drug	0.88	1	0.88
56	Afap1l1 (actin filament associated protein 1-like 1)	4	high viability only with doxorubicin	1.1	1.1	1
57	Eif3g (eukaryotic translation initiation factor 3, subunit G)	1	low viability only with doxorubicin; normal without drug (active)	0.56	0.78	0.72
58	Eif3g (eukaryotic translation initiation factor 3, subunit G)	2	low viability with and without drug	0.3	0.86	0.35
59	Eif3g (eukaryotic translation initiation factor 3, subunit G)	3	low viability with and without drug	0.6	0.92	0.65
60	Eif3g (eukaryotic translation initiation factor 3, subunit G)	4	low viability with and without drug	0.42	0.64	0.66
